The list is a part of this screen's results and no random one: it gathers tests that were run many times, whatever their T/C, doses with no T/C, and many T/C values between a quarter and a half above the control. Further doses and runs are listed elsewhere. T/C gives the treated animals as a percentage of the vehicle group. Some entries give survivors of the animals treated and no T/C: the source holds a T/C of zero for them, seemingly a mark for toxic or unscored doses. Some doses without a T/C left all or most animals alive at the check, yet need not have been tolerated: the source hardly ever lists a survival T/C far under the control, and the zero likely stands for such cases as well. Counts of survivors are from the toxicity check (mostly the fifth day) where no day follows; animals may have died later. Schedule codes are those of the source, taken here to give the interval after Q, in days (D) or hours (H), and the number of doses after X. For survival time, the PubChem record calls one and a half times the control and up active, and a quarter to a half above the control has no call in these data; cut-offs in other NCI protocols can differ. Some entries hold several experiments; the results are listed from low to high. Some T/C values are followed by the survivors on the day toxicity was checked, most often the fifth; without a count, all were alive then.
Test system: CD2F1 mice, L1210 leukemia ip, survival T/C
Assay: NCI In Vivo Anticancer Drug Screen. Data for tumor model L1210 Leukemia (intraperitoneal) in CD2F1 (CDF1) mice
Details: higher T/C = longer survival
Procedure, shortened: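 Transplantable tumor in mice; compound-treated vs vehicle-treated groups. Read-out = treated/control ratio of the measured endpoint.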

[1] = T/C endpoint: mean survival time, dose: 100.0 mg/kg/injection, schedule: Q04DX002 (ip), vehicle: saline
[2] = T/C endpoint: mean survival time, dose: 200.0 mg/kg/injection, schedule: Q04DX002 (ip), vehicle: saline
[3] = T/C endpoint: mean survival time, dose: 400.0 mg/kg/injection, schedule: Q04DX002 (ip), vehicle: saline
[4] = T/C endpoint: mean survival time, dose: 200.0 mg/kg/injection, schedule: Q04DX003 (ip), vehicle: saline with Tween-80
[5] = T/C endpoint: mean survival time, dose: 400.0 mg/kg/injection, schedule: Q04DX003 (ip), vehicle: saline with Tween-80
[6] = T/C endpoint: mean survival time, dose: 400.0 mg/kg/injection, schedule: Q01DX009 (ip), vehicle: saline with Tween-80
[7] = T/C endpoint: mean survival time, dose: 175.0 mg/kg/injection, schedule: Q04DX003 (ip), vehicle: saline
[8] = T/C endpoint: mean survival time, dose: 100.0 mg/kg/injection, schedule: Q04DX003 (ip), vehicle: saline with Tween-80
[9] = T/C endpoint: mean survival time, dose: 400.0 mg/kg/injection, schedule: Q04DX003 (ip), vehicle: other
[10] = T/C endpoint: mean survival time, dose: 400.0 mg/kg/injection, schedule: Q04DX003 (ip), vehicle: saline sonified
[11] = T/C endpoint: mean survival time, dose: 200.0 mg/kg/injection, schedule: Q01DX001 (ip), vehicle: saline
[12] = T/C endpoint: mean survival time, dose: 400.0 mg/kg/injection, schedule: Q01DX001 (ip), vehicle: saline
[13] = T/C endpoint: mean survival time, dose: 400.0 mg/kg/injection, schedule: Q04DX002 (ip), vehicle: saline with Tween-80
[14] = T/C endpoint: mean survival time, dose: 400.0 mg/kg/injection, schedule: Q01DX009 (ip), vehicle: saline

In the case of `CCCC[N+](CC)(CC)CCCNC1=CC(=O)C(NCCC[N+](CC)(CC)CCCC)=CC1=O`, the survivor count [1] is reported as 0 of 3, the survivor count [2] is reported as 0 of 3 and the survivor count [3] is reported as 0 of 3.
`CC1(C)C(O)C(C)(C)C1O` (configuration not stated) was tested, and the survivor count (T/C endpoint: mean survival time, dose: 100.0 mg/kg/injection, schedule: Q01DX009 (ip), vehicle: saline with Tween-80) was 3 of 6, the survivor count [4] was 2 of 6 and the survivor count [5] was 0 of 6.
In the case of `O=C(O)c1ccccn1`, the survivor count (T/C endpoint: mean survival time, dose: 200.0 mg/kg/injection, schedule: Q04HX027 (ip), vehicle: saline) is reported as 0 of 5.
In the case of `COc1cc(C)ccc1Cl`, the survivor count [6] is reported as 3 of 6.
In the case of `O=P(O)(O)OCC(O)CF` (configuration not stated), the survivor count (T/C endpoint: mean survival time, dose: 115.5 mg/kg/injection, schedule: Q04DX003 (ip), vehicle: saline) is reported as 0 of 6, the T/C [7] is reported as 128 % of control [5 of 6 alive] and the survivor count [7] is reported as 0 of 6. The survivor count (T/C endpoint: mean survival time, dose: 262.5 mg/kg/injection, schedule: Q04DX003 (ip), vehicle: saline) was 0 of 6 and the survivor count (T/C endpoint: mean survival time, dose: 350.0 mg/kg/injection, schedule: Q04DX003 (ip), vehicle: saline) was 1 of 6.
In the case of `CN(C)c1nc(N)nc(-c2cc[n+]([O-])cc2)n1`, the survivor count [3] is reported as 0 of 3.
For `Fc1ccc(/C=N\N=C(N/N=C/c2ccc(F)cc2)N/N=C/c2ccc(F)cc2)cc1`, the survivor count [8] was 1 of 3, the survivor count [4] was 0 of 3 and the survivor count [5] was 1 of 3.
In the case of `CC(=O)Nc1ncc2ccccc2c1-c1ccc(NC(=O)CN(CCCl)CCCl)cc1`, the survivor count [9] is reported as 3 of 3.
With `Cc1ccccc1C(C)NC1=NCCO1` (configuration not stated) the survivor count [8] was 0 of 6, the survivor count [4] was 0 of 6 and the survivor count [5] was 0 of 6.
In the case of `CCCCN(CCCC)CC(O)c1ccc2cc(Cl)cc(Cl)c2n1` (configuration not stated), the survivor count [8] is reported as 0 of 6, the survivor count [4] is reported as 0 of 6 and the survivor count [5] is reported as 0 of 6.
For `COc1cc(NS(C)(=O)=O)ccc1Nc1c2ccc(Cl)cc2nc2c(OC)cccc12`, the survivor count (T/C endpoint: mean survival time, dose: 25.0 mg/kg/injection, schedule: Q01DX009 (ip), vehicle: saline with Tween-80) was 5 of 6, the survivor count (T/C endpoint: mean survival time, dose: 50.0 mg/kg/injection, schedule: Q01DX009 (ip), vehicle: saline with Tween-80) was 5 of 6 and the T/C [10] was 148 % of control.
`CC1=CC(=O)C(c2ccc(O)cc2O)=CC1=O` was tested, and the survivor count [8] was 4 of 6, the survivor count [4] was 0 of 6 and the survivor count [5] was 0 of 6.
In the case of `CSc1ccc(N2C(N)=NC(N)=NC2(C)C)cc1`, the survivor count [1] is reported as 0 of 3 and the survivor count [2] is reported as 0 of 3.
`CCC(c1ccc2cc(OC)ccc2c1)C(C(=O)O)C(=O)O` (configuration not stated) was tested, and the survivor count (T/C endpoint: mean survival time, dose: 400.0 mg/kg/injection, schedule: Q04DX003 (ip), vehicle: Klucel (hydroxypropylcellulose) (HPC)) was 2 of 6.
In the case of `COc1ccc(NC2=C(C)C(=O)C3=C(C2=O)[C@H](COC(N)=O)[C@]2(OC)[C@@H]4N[C@@H]4CN32)cc1`, the T/C (T/C endpoint: mean survival time, dose: 12.0 mg/kg/injection, schedule: Q01DX001 (ip), vehicle: water) is reported as 134 % of control and the T/C (T/C endpoint: mean survival time, dose: 24.0 mg/kg/injection, schedule: Q01DX001 (ip), vehicle: water) is reported as 135 % of control.
`CCOC(=O)Nc1cc(NC(c2ccc(Cl)cc2)c2ccc(Cl)cc2)c2[nH]cnc2n1` was tested, and the survivor count (T/C endpoint: mean survival time, dose: 150.0 mg/kg/injection, schedule: Q01DX001 (ip), vehicle: other) was 2 of 6 and the survivor count (T/C endpoint: mean survival time, dose: 300.0 mg/kg/injection, schedule: Q01DX001 (ip), vehicle: other) was 1 of 6.
In the case of `CSc1nc(Cl)cc(Sc2nc(N)nc3nc[nH]c23)n1`, the T/C (T/C endpoint: mean survival time, dose: 75.0 mg/kg/injection, schedule: Q01DX009 (ip), vehicle: Klucel (hydroxypropylcellulose) (HPC)) is reported as 134 % of control and the survivor count (T/C endpoint: mean survival time, dose: 300.0 mg/kg/injection, schedule: Q01DX009 (ip), vehicle: Klucel (hydroxypropylcellulose) (HPC)) is reported as 6 of 6.
`CCCCCCCCCCCCCCNC(=O)Nc1ccc(Cl)c(Cl)c1` was tested, and the survivor count [9] was 6 of 6.
With `Cc1cccc(C)c1OC(=O)Cl` the survivor count (T/C endpoint: mean survival time, dose: 80.0 mg/kg/injection, schedule: Q01DX001 (ip), vehicle: saline) was 2 of 6, the survivor count (T/C endpoint: mean survival time, dose: 100.0 mg/kg/injection, schedule: Q01DX001 (ip), vehicle: saline) was 0 of 6 and the survivor count [11] was 0 of 6. For the same molecule, the survivor count [12] was 0 of 6.
`COc1ccc(C2=CSc3ccccc3N2)cc1` was tested, and the survivor count [13] was 1 of 3.
`Nc1ccn([C@@H](C=O)C[C@@H](C=O)CO)c(=O)n1` was tested, and the T/C (T/C endpoint: median survival time, dose: 200.0 mg/kg/injection, schedule: Q01DX009 (ip), vehicle: saline) was 137 and 149 % of control.
For `COc1ccccc1N=Nc1c(O)n(-c2ccccc2OC)c(=S)n(-c2ccc(Cl)cc2)c1=O`, the survivor count (T/C endpoint: mean survival time, dose: 400.0 mg/kg/injection, schedule: Q01DX001 (ip), vehicle: saline with Tween-80) was 0 of 6.
With `CNC(=O)OCc1c(COC(=O)NC)c(-c2ccc(Cl)c(Cl)c2)n2c1Cc1ccccc1C2` the T/C (T/C endpoint: median survival time, dose: 25.0 mg/kg/injection, schedule: Q01DX009 (ip), vehicle: distilled water + Tween-80) was 133 % of control, the T/C (T/C endpoint: median survival time, dose: 50.0 mg/kg/injection, schedule: Q01DX009 (ip), vehicle: distilled water + Tween-80) was 130 % of control and the T/C (T/C endpoint: median survival time, dose: 200.0 mg/kg/injection, schedule: Q01DX009 (ip), vehicle: distilled water + Tween-80) was 128 % of control. The survivor count (T/C endpoint: median survival time, dose: 400.0 mg/kg/injection, schedule: Q01DX009 (ip), vehicle: distilled water + Tween-80) was 6 of 6.
With `O=NN(CCCl)C(=O)Nc1cccnc1` the T/C (T/C endpoint: mean survival time, dose: 12.5 mg/kg/injection, schedule: Q01DX001 (ip), vehicle: water) was 126 % of control, the survivor count (T/C endpoint: mean survival time, dose: 25.0 mg/kg/injection, schedule: Q01DX001 (ip), vehicle: water) was 5 of 5 and the survivor count (T/C endpoint: mean survival time, dose: 50.0 mg/kg/injection, schedule: Q01DX001 (ip), vehicle: water) was 0 of 5. For the same molecule, the survivor count (T/C endpoint: mean survival time, dose: 100.0 mg/kg/injection, schedule: Q01DX001 (ip), vehicle: water) was 0 of 5, the survivor count (T/C endpoint: mean survival time, dose: 200.0 mg/kg/injection, schedule: Q01DX001 (ip), vehicle: water) was 0 of 5 and the survivor count (T/C endpoint: mean survival time, dose: 400.0 mg/kg/injection, schedule: Q01DX001 (ip), vehicle: water) was 0 of 5.
With `N/N=C(\N)c1ccccc1` the survivor count [12] was 0 of 6.
With `CCN(CC)P(=O)(NCCCl)OC` (configuration not stated) the T/C (T/C endpoint: mean survival time, dose: 200.0 mg/kg/injection, schedule: Q01DX009 (ip), vehicle: DMSO) was 133 % of control and the survivor count (T/C endpoint: mean survival time, dose: 400.0 mg/kg/injection, schedule: Q01DX009 (ip), vehicle: DMSO) was 1 of 3.
With `OC1(C2(O)c3ccccc3Oc3ccccc32)c2ccccc2Oc2ccccc21` the survivor count [14] was 6 of 6.
For `c1ccc(-c2cc(-c3ccccc3)[o+]c(-c3ccccc3)c2)cc1`, the survivor count [4] was 1 of 6 and the survivor count [5] was 0 of 6.
With `N=C(N)CCCCCCCCC(=N)N` the survivor count (T/C endpoint: mean survival time, dose: 25.0 mg/kg/injection, schedule: Q01DX009 (ip), vehicle: saline) was 1 of 6.
With `Nc1nc(SCC(=O)c2ccccc2)c2[nH]cnc2n1` the T/C (T/C endpoint: mean survival time, dose: 264.0 mg/kg/injection, schedule: Q04DX003 (ip), vehicle: saline with Tween-80) was 134 % of control, the T/C [10] was 143 % of control and the T/C [5] was 145 % of control.
In the case of `[I-].[Ni+2].[O-]/N=C/c1ccccn1.[O-]/N=C/c1ccccn1.[O-]/N=C/c1ccccn1`, the survivor count [11] is reported as 3 of 6 and the survivor count [12] is reported as 0 of 6.
For `S=c1[nH]c2ccccc2[nH]c1=S`, the survivor count (T/C endpoint: mean survival time, dose: 40.0 mg/kg/injection, schedule: Q01DX001 (ip), vehicle: Klucel (hydroxypropylcellulose) (HPC)) was 1 of 6.
With `Cc1ccc(N=Nc2ccc(N(C)C)cc2)c2cccnc12` the survivor count (T/C endpoint: mean survival time, dose: 200.0 mg/kg/injection, schedule: Q01DX009 (ip), vehicle: saline with Tween-80) was 6 of 6 and the survivor count [6] was 5 of 6.
For `CCCCCCCCCCCC1CCCC(C)N1` (configuration not stated), the survivor count (T/C endpoint: mean survival time, dose: 100.0 mg/kg/injection, schedule: Q04DX002 (ip), vehicle: saline with Tween-80) was 3 of 3, the survivor count (T/C endpoint: mean survival time, dose: 200.0 mg/kg/injection, schedule: Q04DX002 (ip), vehicle: saline with Tween-80) was 0 of 3 and the survivor count [13] was 0 of 3.
For `O=S(=O)(O)NC1CCCCC1`, the survivor count (T/C endpoint: mean survival time, dose: 200.0 mg/kg/injection, schedule: Q01DX009 (ip), vehicle: saline) was 0 of 6 and the survivor count [14] was 0 of 6.
